Some of the results follow.
How the values were obtained:
Test in all cases: log2 fold change, soluble protein after heating vs DMSO (PISA); higher = thermal stabilisation; K562 cells, 10 uM, 30 min; active = over 0.2 and 3.5 SD of the protein, either way, in both replicates (recomputed)
[1] = compound: C#Cc1cccc(Nc2ncnc3cc(OCCOC)c(OCCOC)cc23)c1 [erlotinib]
Method in brief: (§1)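 K562 cells at 2×10^6 cells/mL were treated for 30 min with 10 μM compound, and aliquots were heated for 3 min over 48°C-58°C before pooling. Extraction used PBS with 0.5% NP-40 at 4°C, and soluble protein was the supernatant after 21,000xg for 90 min, measured by TMTpro 16plex LC-MS/MS with channel sums equalised. Thermal stability values, relative to control samples and from duplicates, are log2 fold changes.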

The chains behind the UniProt entries cited, without tags or fusion partners. Where a name states a change or a piece, a line headed by the entry shows the natural chain unless it says otherwise.
UniProt Q5TFE4: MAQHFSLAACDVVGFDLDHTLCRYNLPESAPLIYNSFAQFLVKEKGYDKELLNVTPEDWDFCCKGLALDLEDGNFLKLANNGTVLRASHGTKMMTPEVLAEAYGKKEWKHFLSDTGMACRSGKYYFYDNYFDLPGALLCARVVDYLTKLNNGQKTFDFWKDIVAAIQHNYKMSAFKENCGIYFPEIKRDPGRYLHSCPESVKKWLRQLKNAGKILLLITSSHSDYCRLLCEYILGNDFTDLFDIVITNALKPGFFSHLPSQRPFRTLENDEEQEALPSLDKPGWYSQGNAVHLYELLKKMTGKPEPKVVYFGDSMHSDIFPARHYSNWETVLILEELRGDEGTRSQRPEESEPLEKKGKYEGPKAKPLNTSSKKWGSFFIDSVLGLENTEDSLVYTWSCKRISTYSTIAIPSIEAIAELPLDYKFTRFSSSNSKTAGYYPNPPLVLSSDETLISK
UniProt Q8TEM1: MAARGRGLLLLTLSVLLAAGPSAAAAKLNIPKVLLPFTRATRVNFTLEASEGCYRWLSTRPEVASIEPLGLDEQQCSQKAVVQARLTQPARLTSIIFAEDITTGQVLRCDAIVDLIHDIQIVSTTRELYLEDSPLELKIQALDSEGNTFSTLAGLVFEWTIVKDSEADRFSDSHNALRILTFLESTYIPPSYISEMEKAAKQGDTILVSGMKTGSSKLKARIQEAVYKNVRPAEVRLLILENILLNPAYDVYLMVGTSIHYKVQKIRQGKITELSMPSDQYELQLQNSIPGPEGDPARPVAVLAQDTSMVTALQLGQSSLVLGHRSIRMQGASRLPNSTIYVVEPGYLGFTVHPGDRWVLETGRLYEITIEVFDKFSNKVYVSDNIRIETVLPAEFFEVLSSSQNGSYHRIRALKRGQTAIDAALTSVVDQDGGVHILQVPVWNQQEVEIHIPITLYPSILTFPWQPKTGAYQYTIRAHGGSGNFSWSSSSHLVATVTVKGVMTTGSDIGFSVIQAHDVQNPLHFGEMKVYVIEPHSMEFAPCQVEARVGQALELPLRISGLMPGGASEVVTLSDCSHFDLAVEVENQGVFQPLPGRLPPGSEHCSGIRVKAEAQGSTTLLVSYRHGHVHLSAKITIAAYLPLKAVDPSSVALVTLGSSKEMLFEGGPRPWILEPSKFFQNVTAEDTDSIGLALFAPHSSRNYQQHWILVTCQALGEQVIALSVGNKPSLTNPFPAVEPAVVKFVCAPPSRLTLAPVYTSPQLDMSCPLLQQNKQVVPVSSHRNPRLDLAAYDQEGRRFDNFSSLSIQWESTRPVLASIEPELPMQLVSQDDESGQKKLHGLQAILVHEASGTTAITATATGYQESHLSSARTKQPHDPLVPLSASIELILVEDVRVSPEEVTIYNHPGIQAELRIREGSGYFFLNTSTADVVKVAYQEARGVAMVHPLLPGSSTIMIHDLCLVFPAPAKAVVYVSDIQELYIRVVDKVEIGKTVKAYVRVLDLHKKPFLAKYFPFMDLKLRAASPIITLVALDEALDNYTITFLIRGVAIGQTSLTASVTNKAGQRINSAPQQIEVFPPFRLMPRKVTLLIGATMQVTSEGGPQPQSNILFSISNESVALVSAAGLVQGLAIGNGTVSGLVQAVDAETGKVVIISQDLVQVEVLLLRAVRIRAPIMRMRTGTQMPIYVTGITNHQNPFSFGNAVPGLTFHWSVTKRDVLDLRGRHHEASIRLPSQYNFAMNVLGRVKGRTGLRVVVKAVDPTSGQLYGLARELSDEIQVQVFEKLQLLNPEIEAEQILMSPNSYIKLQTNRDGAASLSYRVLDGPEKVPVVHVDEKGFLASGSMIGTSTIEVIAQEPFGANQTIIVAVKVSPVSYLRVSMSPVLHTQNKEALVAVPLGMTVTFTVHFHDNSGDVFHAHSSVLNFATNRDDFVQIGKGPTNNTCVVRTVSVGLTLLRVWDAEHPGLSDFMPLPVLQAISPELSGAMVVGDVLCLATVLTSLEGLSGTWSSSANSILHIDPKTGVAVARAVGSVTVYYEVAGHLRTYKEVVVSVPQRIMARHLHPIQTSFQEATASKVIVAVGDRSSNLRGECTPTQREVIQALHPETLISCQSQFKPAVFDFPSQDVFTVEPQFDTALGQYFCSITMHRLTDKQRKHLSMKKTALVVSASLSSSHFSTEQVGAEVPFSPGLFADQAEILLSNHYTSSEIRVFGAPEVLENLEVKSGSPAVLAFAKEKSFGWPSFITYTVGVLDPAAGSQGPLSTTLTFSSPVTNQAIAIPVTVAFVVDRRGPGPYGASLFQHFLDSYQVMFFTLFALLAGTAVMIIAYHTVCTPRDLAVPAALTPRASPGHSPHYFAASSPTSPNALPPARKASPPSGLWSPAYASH
UniProt Q02218: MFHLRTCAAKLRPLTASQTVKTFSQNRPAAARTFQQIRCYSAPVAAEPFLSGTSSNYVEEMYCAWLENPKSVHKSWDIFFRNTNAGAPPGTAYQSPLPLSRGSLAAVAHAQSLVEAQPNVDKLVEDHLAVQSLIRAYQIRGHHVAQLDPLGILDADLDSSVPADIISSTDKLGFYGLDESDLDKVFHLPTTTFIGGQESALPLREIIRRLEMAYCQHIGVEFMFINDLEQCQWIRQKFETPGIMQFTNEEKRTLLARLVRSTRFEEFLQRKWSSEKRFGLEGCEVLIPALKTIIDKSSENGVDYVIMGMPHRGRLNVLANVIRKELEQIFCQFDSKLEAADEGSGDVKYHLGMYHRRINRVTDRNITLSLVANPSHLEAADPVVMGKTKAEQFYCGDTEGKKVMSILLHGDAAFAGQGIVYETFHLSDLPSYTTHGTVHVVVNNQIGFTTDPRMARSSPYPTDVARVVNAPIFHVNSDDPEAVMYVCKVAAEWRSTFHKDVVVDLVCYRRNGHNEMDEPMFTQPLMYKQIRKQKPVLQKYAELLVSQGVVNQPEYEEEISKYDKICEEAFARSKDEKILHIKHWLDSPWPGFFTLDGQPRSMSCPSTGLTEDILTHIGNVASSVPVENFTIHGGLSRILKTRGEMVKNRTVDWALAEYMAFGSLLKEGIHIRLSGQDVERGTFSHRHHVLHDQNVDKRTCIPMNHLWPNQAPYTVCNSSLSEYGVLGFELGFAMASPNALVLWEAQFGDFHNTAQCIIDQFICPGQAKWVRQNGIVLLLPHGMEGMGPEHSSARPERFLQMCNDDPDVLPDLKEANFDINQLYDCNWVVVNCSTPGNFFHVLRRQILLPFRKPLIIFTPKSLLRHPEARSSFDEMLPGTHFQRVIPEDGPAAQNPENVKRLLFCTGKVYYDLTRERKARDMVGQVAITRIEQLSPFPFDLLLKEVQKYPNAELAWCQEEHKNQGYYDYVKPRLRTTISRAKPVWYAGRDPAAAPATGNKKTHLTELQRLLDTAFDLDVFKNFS
UniProt Q9Y5Y2: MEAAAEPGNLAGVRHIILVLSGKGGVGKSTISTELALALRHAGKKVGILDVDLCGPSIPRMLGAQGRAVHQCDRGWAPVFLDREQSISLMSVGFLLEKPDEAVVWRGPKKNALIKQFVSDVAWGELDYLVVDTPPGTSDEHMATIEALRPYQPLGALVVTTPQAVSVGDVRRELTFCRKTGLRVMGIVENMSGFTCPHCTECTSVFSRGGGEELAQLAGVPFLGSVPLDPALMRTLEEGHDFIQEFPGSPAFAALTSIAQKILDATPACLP
UniProt Q9H8K7: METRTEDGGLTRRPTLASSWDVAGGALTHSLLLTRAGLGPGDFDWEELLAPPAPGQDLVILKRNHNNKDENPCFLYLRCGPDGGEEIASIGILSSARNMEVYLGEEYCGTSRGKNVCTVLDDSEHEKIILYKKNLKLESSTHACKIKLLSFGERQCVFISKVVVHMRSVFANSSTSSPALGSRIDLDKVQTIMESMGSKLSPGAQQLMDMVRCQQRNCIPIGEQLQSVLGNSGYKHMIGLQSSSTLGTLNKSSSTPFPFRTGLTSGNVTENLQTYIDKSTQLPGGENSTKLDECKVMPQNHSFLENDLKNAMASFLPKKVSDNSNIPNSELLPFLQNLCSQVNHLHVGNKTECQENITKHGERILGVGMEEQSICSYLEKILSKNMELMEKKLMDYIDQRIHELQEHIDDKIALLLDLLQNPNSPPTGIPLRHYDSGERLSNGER
UniProt P07237: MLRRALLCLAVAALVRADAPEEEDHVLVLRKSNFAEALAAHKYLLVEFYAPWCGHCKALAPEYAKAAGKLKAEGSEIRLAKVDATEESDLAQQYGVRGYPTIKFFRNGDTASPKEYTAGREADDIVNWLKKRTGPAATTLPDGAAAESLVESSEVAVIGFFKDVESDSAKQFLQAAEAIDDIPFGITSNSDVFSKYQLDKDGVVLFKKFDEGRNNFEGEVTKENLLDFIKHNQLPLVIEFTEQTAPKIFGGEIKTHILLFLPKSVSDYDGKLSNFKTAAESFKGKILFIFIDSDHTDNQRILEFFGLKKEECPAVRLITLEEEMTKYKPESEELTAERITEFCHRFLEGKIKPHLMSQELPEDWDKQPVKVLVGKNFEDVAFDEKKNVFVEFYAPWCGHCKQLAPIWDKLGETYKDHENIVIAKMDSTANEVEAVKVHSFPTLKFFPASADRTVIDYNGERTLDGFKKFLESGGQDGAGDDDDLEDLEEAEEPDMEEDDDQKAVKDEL
UniProt Q6N063: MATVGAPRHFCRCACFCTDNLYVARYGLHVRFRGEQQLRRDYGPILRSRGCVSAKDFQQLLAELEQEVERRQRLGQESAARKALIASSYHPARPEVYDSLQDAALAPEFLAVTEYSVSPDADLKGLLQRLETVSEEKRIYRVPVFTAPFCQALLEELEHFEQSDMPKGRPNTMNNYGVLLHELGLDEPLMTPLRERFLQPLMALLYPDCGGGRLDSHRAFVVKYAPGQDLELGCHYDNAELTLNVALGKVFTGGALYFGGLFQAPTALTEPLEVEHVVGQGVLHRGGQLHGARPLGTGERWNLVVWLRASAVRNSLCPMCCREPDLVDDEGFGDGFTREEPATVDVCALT
UniProt Q9NV35: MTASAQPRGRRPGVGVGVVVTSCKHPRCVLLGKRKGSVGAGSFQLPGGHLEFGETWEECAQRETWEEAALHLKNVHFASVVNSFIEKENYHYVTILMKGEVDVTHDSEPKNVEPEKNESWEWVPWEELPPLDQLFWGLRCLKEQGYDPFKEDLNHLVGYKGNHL
UniProt O43929: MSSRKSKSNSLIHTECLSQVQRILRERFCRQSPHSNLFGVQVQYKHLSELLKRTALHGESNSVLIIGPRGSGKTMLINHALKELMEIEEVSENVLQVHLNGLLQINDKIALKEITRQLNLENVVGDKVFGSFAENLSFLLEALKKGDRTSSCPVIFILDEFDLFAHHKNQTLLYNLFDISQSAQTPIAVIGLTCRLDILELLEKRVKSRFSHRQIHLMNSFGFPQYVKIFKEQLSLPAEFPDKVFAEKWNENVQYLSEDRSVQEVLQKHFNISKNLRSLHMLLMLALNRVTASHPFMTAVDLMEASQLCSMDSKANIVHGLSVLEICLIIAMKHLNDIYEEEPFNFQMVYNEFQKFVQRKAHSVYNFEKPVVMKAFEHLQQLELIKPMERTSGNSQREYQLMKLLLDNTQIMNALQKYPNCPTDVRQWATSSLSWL
UniProt Q02818: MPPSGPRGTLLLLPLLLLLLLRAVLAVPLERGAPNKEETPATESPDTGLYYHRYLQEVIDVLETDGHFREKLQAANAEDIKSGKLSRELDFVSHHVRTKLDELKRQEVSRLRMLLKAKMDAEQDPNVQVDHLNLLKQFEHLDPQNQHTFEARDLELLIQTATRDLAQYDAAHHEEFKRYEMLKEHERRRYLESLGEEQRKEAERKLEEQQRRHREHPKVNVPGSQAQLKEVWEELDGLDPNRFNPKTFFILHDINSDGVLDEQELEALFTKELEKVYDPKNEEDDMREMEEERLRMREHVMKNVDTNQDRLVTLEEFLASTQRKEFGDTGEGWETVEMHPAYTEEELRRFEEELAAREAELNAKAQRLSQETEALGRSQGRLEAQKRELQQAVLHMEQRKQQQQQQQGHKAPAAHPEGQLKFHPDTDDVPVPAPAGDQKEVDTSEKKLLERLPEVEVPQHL
UniProt Q8TCD5: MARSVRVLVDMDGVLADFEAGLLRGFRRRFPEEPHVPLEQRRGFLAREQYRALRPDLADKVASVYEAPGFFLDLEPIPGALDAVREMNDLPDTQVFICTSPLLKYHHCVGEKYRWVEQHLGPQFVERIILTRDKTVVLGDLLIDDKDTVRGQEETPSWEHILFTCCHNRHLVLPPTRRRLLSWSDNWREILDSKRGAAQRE
UniProt Q99571: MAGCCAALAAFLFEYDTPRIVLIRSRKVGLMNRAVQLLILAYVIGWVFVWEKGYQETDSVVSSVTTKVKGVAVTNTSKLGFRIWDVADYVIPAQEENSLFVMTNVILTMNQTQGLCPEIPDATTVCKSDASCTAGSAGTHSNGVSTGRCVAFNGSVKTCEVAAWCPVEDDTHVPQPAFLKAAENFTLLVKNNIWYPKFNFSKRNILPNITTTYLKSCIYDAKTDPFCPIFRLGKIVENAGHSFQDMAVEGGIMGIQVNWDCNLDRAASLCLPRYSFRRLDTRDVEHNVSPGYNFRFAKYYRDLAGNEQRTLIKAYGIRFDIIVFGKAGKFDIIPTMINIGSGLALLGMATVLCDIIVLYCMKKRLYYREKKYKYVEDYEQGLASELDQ

[2] = compound: C/C(=N\NC(=O)C1=CC(=CC=C1)S(=O)(=O)N2CCOCC2)/C3=C(C=CC(=C3)Cl)O
Method in brief: as §1

[3] = compound: C1=CC(=C(C=C1Cl)C2=NC3=NC=CN=C3C(=N2)NC4=CC=NC=C4)F
Method in brief: as §1

[4] = compound: C1=CC(=CC=C1C2=NC3=C(N2)C=C(C=C3)C(=O)N)OC4=CC=C(C=C4)Cl
Method in brief: as §1

[5] = compound: C1=CC2=C(C=CC(=C2)/C=C\3/C(=O)NC(=NCC4=CC=CS4)S3)N=C1
Method in brief: as §1

[6] = compound: C1=CC2=NC=CN=C2C=C1/C=C/3\C(=O)NC(=O)S3
Method in brief: as §1

[7] = compound: C1=CC=C(C=C1)C2=NC(=C(N2)C3=CC=NC=C3)C4=CC(=C(C=C4)Cl)O
Method in brief: as §1

[8] = compound: C1=CC=C2C(=C1)C3=NNC4=CC=CC(=C43)C2=O
Method in brief: as §1

[9] = compound: C1CCN(C1)C(=O)NC2=CC=CC(=C2)NC3=NC=C(C(=N3)NCCC4=CN=CN4)Br
Method in brief: as §1

[10] = compound: C1CN(CCC1(CC2=CC=C(C=C2)Cl)N)C3=NC=NC4=C3C=CN4
Method in brief: as §1

Measured: log2 fold change

OGT (UniProt O15294)
inactive: [1] -0.033 | [2] 0.055 | [3] 0 | [4] 0.039 | [5] 0.025 | [6] -0.013 | [7] -0.051 | [8] -0.014 | [9] -0.042 | [10] 0

NUDT12 (UniProt Q9BQG2)
inactive: [1] 0.018 | [2] 0.025 | [3] 0.059 | [4] -0.076 | [5] 0.015 | [6] 0.027 | [7] 0.013 | [8] 0.104 | [9] -0.039 | [10] -0.034

NTPCR (UniProt Q9BSD7)
inactive: [1] 0.063 | [2] 0.031 | [3] 0.093 | [4] 0.062 | [5] 0.055 | [6] 0.013 | [7] 0.012 | [8] 0.059 | [9] -0.01 | [10] 0.045

PA2G4 (UniProt Q9UQ80)
inactive: [1] -0.009 | [2] 0.036 | [3] 0.094 | [4] 0.013 | [5] -0.014 | [6] 0.011 | [7] 0.021 | [8] 0.046 | [9] -0.001 | [10] -0.079

NUMBL (UniProt Q9Y6R0)
inactive: [1] -0.001 | [2] 0.021 | [3] -0.026 | [4] -0.095 | [5] 0.085 | [6] -0.047 | [7] 0.042 | [8] 0.056

NUDT21 (UniProt O43809)
inactive: [1] -0.02 | [2] 0.07 | [3] -0.127 | [4] 0.047 | [5] -0.035 | [6] -0.015 | [7] -0.026 | [8] 0.008 | [9] 0.003 | [10] -0.089

NT5DC1 (UniProt Q5TFE4)
inactive: [1] 0.071 | [2] 0.001 | [3] 0.087 | [4] -0.019 | [5] 0.087 | [6] -0.008 | [7] 0.02 | [8] 0.02 | [9] 0.008 | [10] 0.028

P4HA1 (UniProt P13674)
inactive: [1] -0.062 | [2] -0.118 | [3] -0.051 | [4] 0.03 | [5] -0.002 | [6] -0.022 | [7] -0.006 | [8] -0.013 | [9] -0.044 | [10] -0.042

NUP160 (UniProt Q12769)
inactive: [1] 0.001 | [2] 0.022 | [3] 0.01 | [4] -0.024 | [5] -0.006 | [6] 0.045 | [7] -0.017 | [8] -0.091 | [9] -0.085 | [10] -0.025

NUP210 (UniProt Q8TEM1)
inactive: [1] 0.021 | [2] 0.004 | [3] 0.06 | [4] -0.004 | [5] 0.011 | [6] 0.015 | [7] -0.018 | [8] -0.186 | [9] -0.009 | [10] 0.012

OGDH (UniProt Q02218)
inactive: [1] -0.134 | [2] 0.005 | [3] -0.033 | [4] 0.108 | [5] -0.024 | [6] 0.065 | [7] 0.046 | [8] 0.138 | [9] -0.051 | [10] -0.026

OSBPL9 (UniProt Q96SU4)
inactive: [1] 0.039 | [2] 0.063 | [3] -0.115 | [4] -0.01 | [5] 0.168 | [6] -0.047 | [7] 0.188 | [8] 0.02 | [9] -0.056 | [10] -0.238

NUBP2 (UniProt Q9Y5Y2)
inactive: [1] 0.042 | [2] 0.011 | [3] 0.039 | [4] 0.009 | [5] 0.057 | [6] 0.002 | [7] 0.045 | [8] -0.005 | [9] 0.013 | [10] 0.076

OPHN1 (UniProt O60890)
inactive: [1] 0.022 | [2] -0.155 | [3] 0.101 | [4] -0.009 | [5] 0.24 | [6] 0.03 | [7] -0.007 | [8] 0.039 | [9] 0.044 | [10] 0.04

OGFOD1 (UniProt Q8N543)
inactive: [1] 0.043 | [2] -0.18 | [3] 0.02 | [4] 0.007 | [5] 0.015 | [6] 0.11 | [7] -0.01 | [8] 0.014 | [9] 0.007 | [10] 0.03

Two entries drawn at random from the list so far:
PA2G4 (UniProt Q9UQ80)
inactive: [1] -0.009 | [2] 0.036 | [3] 0.094 | [4] 0.013 | [5] -0.014 | [6] 0.011 | [7] 0.021 | [8] 0.046 | [9] -0.001 | [10] -0.079

NT5DC1 (UniProt Q5TFE4)
inactive: [1] 0.071 | [2] 0.001 | [3] 0.087 | [4] -0.019 | [5] 0.087 | [6] -0.008 | [7] 0.02 | [8] 0.02 | [9] 0.008 | [10] 0.028

Continuation.

NUDC (UniProt Q9Y266)
inactive: [1] 0.014 | [2] 0.001 | [3] 0.036 | [4] 0.006 | [5] -0.015 | [6] 0.004 | [7] -0.006 | [8] 0.057 | [9] 0.017 | [10] 0.02

NUP188 (UniProt Q5SRE5)
inactive: [1] 0.009 | [2] 0.119 | [3] -0.023 | [4] -0.015 | [5] 0.08 | [6] 0.028 | [7] 0.026 | [8] -0.03 | [9] -0.086 | [10] -0.055

NSUN7 (UniProt Q8NE18)
inactive: [1] 0.066 | [2] -0.274 | [3] -0.067 | [4] -0.046 | [5] 0.187 | [6] 0.051 | [7] -0.2 | [8] -0.029 | [9] 0.063 | [10] -0.142

PAAT (UniProt Q9H8K7)
inactive: [1] 0.072 | [2] -0.136 | [3] 0.003 | [4] -0.06 | [5] -0.114 | [6] 0.146 | [7] 0.019 | [8] -0.099 | [9] -0.119 | [10] -0.062

P4HB (UniProt P07237)
inactive: [1] -0.042 | [2] -0.007 | [3] 0.013 | [4] 0 | [5] -0.041 | [6] 0.024 | [7] -0.032 | [8] -0.02 | [9] 0.04 | [10] 0.051

OGFOD2 (UniProt Q6N063)
inactive: [1] -0.051 | [3] -0.047 | [4] 0.011 | [5] 0.089 | [6] 0.14 | [7] 0.004 | [8] 0.041 | [9] 0.023 | [10] 0.017
active: [2] -0.283

NUDT15 (UniProt Q9NV35)
inactive: [1] -0.006 | [2] 0.046 | [3] 0.036 | [4] 0.02 | [5] -0.004 | [6] -0.012 | [7] 0.037 | [8] 0.009 | [9] -0.061 | [10] -0.018

ORC4 (UniProt O43929)
inactive: [1] 0.038 | [2] 0.009 | [3] 0.027 | [4] -0.014 | [5] -0.038 | [6] 0.028 | [7] -0.034 | [8] 0.055 | [9] -0.049 | [10] 0.008

NUP214 isoform 5 (UniProt P35658)
inactive: [1] 0.001 | [2] -0.002 | [3] -0.199 | [4] -0.021 | [5] -0.001 | [6] 0.031 | [7] -0.05 | [8] 0.037 | [9] 0.014 | [10] -0.084

NUCB1 (UniProt Q02818)
inactive: [1] -0.015 | [2] 0.015 | [3] 0.067 | [4] 0 | [5] -0.008 | [6] 0.033 | [7] -0.037 | [8] -0.019 | [9] -0.009 | [10] 0.031

OS9 (UniProt Q13438)
inactive: [1] -0.024 | [2] -0.046 | [3] -0.037 | [4] 0.03 | [5] 0.026 | [6] 0.019 | [7] -0.016 | [8] -0.03 | [9] -0.003 | [10] -0.007

NUS1 (UniProt Q96E22)
inactive: [1] -0.071 | [2] 0.047 | [3] 0.032 | [4] 0.052 | [5] 0.019 | [6] 0.082 | [7] -0.041 | [8] -0.114 | [9] -0.036 | [10] 0.013

NT5C (UniProt Q8TCD5)
inactive: [1] 0.043 | [2] 0.001 | [3] 0.008 | [4] 0.043 | [5] -0.017 | [6] 0.018 | [7] 0.026 | [8] -0.049 | [9] 0.014 | [10] 0.036

P2RX4 isoform 2 (UniProt Q99571)
inactive: [1] 0.162 | [2] -0.037 | [3] 0.062 | [4] -0.101 | [5] -0.057 | [6] -0.068 | [7] 0.02 | [8] 0.082 | [9] -0.051 | [10] 0.126

OSTF1 (UniProt Q92882)
inactive: [1] 0.058 | [2] 0.094 | [3] 0.035 | [4] 0.016 | [5] -0.095 | [6] 0.051 | [7] 0.028 | [8] 0.131 | [9] -0.061 | [10] -0.072

Source: the supplement of paper PMC10849652
